What all share (test): log2 fold change, soluble protein after heating vs DMSO (PISA); higher = thermal stabilisation; K562 lysate, 10 uM; active = over 0.2 and 3.5 SD of the protein, either way, in both replicates (recomputed)
Compound in experiment [1]: C1=CC=C(C=C1)[C@H](COC2=CC3=C(C=C2)NC(=O)N3)NC(=O)C4=CC=CN(C4=O)CC5=CC(=C(C=C5)F)F
In a few lines:
(§1)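 A 30 min treatment with 10 μM compound was applied to crude K562 extract at 1 mg/mL protein in PBS pH 7.4 with 1 mM MgCl2. Heating for 3 min spanned 48°C-58°C, after which aliquots were pooled, adjusted to 0.5% NP-40 at 4°C and spun at 21,000xg for 90 min. TMTpro 16plex LC-MS/MS of the supernatant, with channel sums equalised, gave values recorded as log-two fold change in thermal stability against solvent controls, from duplicates.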

Chains of the proteins cited; added tags and fusions are not shown. Lines headed by an entry give the natural chain unless they say otherwise; changes in a name come on top.
UniProt Q9BPX5, whole entry, looked up: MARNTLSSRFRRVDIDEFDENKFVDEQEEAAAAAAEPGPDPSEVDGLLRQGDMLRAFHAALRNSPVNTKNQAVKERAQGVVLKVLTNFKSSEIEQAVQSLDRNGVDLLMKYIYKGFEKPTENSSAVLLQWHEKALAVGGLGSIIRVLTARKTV
UniProt P05067, whole entry, looked up: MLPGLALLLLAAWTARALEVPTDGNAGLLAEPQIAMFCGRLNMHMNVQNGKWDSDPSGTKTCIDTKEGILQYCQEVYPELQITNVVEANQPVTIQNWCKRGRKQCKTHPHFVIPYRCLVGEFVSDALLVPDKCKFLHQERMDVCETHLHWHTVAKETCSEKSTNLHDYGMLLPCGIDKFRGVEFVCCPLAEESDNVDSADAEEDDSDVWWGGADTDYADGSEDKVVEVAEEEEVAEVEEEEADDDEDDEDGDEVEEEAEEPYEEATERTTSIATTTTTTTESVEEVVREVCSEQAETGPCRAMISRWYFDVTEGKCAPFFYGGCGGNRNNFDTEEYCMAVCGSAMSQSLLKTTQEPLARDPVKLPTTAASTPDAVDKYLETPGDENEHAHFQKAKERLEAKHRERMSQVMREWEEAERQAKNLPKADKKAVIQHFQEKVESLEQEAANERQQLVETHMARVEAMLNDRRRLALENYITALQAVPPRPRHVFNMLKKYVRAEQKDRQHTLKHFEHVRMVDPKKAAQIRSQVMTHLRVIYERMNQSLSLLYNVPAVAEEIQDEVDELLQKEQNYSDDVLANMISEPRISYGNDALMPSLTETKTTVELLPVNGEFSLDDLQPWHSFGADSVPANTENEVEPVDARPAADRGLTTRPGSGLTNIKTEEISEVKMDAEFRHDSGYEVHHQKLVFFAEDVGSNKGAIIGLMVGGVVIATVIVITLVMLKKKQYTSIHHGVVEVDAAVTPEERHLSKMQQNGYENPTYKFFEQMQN
UniProt P02656: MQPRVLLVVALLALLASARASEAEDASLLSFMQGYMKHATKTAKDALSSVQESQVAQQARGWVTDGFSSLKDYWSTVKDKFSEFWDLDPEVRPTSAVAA
UniProt O14791: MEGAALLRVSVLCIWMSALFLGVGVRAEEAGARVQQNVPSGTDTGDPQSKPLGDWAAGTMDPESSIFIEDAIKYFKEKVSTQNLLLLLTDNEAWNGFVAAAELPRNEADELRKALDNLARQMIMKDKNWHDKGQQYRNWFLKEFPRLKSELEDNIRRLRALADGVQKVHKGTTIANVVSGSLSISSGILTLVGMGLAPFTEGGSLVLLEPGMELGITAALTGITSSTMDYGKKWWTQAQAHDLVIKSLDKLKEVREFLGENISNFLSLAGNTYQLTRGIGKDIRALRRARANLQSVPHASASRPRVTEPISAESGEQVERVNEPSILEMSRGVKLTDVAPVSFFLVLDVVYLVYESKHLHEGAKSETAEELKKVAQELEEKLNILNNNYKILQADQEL
UniProt Q8N2F6: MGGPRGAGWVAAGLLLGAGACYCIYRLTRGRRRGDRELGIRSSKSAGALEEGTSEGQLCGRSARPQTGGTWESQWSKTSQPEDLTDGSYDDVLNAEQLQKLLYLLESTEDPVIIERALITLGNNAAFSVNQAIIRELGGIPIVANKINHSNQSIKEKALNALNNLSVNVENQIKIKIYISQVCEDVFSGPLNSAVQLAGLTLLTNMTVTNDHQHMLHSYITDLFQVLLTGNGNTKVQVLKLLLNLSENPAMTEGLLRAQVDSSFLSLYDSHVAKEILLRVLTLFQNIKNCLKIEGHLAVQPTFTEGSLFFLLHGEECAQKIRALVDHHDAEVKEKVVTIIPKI
UniProt Q02410: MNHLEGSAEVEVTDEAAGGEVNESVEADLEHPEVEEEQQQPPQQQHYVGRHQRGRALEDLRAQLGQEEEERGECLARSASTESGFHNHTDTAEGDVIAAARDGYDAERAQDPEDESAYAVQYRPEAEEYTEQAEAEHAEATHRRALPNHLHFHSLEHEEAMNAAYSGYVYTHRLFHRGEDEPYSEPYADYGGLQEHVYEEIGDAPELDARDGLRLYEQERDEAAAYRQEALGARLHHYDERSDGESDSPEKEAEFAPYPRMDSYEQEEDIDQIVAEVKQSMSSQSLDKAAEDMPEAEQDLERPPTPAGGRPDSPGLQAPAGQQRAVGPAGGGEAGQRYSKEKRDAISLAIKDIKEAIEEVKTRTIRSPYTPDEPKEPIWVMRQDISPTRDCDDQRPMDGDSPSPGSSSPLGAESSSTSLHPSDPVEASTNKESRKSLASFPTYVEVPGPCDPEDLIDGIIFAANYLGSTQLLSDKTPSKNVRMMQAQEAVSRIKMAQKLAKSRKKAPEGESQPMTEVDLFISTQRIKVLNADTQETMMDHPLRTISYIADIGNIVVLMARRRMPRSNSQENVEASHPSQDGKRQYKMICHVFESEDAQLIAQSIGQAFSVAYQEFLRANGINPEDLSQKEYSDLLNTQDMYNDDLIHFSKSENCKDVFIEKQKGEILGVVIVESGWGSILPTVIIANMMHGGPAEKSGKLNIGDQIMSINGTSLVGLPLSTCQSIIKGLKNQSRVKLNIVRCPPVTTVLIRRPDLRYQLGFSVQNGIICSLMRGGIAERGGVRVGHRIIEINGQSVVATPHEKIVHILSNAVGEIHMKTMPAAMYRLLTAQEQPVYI
UniProt P84077: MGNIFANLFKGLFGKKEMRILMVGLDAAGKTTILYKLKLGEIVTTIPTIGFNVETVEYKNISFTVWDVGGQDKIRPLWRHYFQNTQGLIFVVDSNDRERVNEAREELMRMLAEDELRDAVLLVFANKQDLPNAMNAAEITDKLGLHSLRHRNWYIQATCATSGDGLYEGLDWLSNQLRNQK
UniProt Q9Y689: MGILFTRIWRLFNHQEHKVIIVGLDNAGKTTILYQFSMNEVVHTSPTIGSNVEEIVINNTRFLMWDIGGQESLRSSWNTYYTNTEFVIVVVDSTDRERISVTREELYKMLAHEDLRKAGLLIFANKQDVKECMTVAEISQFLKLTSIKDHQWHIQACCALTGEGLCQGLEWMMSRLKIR
UniProt Q8N264: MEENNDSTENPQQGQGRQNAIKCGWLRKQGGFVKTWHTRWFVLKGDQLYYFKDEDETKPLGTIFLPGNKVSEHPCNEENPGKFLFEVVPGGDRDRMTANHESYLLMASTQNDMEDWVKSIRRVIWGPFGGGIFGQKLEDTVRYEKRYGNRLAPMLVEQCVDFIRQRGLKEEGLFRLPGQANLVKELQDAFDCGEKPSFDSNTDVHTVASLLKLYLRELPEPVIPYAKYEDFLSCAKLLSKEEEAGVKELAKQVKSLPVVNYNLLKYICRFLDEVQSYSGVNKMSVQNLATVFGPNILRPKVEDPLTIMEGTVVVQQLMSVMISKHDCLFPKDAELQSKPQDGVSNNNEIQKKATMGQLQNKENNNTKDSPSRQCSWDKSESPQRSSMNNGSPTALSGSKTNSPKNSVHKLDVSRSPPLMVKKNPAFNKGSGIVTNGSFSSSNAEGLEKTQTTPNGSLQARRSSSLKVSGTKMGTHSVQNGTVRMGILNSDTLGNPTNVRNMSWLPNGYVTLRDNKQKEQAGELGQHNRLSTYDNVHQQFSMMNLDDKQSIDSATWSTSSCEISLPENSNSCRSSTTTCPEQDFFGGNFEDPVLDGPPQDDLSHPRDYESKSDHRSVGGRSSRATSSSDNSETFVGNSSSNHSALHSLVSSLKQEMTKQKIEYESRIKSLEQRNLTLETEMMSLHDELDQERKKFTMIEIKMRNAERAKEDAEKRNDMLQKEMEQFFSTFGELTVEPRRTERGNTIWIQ
UniProt Q8WWN8: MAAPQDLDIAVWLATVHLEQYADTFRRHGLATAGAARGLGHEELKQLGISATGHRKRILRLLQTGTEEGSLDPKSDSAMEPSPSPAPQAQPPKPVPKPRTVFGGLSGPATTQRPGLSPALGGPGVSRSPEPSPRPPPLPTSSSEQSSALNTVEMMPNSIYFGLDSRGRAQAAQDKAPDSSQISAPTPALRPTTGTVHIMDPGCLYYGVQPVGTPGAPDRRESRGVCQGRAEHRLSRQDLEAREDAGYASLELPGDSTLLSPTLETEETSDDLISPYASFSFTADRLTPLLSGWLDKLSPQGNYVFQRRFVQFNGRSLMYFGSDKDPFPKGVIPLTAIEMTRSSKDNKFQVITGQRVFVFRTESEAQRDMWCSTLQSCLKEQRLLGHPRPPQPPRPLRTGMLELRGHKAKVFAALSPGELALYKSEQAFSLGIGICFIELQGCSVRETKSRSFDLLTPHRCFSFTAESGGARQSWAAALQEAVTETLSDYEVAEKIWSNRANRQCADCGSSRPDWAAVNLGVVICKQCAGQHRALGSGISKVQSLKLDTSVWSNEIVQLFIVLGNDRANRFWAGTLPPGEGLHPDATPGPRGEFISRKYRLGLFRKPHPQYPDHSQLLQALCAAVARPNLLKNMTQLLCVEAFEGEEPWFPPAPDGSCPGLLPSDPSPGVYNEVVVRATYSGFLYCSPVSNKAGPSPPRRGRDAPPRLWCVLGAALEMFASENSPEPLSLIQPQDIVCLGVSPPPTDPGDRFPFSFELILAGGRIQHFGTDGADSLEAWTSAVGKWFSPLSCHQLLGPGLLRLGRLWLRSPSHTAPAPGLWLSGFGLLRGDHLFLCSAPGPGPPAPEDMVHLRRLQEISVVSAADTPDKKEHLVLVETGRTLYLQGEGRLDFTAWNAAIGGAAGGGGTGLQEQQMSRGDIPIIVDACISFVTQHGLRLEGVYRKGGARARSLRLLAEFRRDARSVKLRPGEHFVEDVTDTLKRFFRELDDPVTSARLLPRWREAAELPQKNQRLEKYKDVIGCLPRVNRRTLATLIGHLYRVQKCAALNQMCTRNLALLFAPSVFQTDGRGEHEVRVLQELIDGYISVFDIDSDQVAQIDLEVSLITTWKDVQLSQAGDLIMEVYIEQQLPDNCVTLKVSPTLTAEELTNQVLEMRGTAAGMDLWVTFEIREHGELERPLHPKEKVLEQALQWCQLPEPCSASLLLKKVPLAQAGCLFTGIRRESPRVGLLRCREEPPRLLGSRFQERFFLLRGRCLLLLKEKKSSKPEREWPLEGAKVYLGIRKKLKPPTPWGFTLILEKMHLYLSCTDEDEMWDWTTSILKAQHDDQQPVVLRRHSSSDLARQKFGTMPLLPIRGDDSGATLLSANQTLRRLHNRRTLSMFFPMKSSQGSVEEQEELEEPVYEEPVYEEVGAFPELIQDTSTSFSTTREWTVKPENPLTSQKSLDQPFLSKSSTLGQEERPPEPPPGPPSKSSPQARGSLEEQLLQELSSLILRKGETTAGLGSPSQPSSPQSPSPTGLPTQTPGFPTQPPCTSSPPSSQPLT
UniProt O00192: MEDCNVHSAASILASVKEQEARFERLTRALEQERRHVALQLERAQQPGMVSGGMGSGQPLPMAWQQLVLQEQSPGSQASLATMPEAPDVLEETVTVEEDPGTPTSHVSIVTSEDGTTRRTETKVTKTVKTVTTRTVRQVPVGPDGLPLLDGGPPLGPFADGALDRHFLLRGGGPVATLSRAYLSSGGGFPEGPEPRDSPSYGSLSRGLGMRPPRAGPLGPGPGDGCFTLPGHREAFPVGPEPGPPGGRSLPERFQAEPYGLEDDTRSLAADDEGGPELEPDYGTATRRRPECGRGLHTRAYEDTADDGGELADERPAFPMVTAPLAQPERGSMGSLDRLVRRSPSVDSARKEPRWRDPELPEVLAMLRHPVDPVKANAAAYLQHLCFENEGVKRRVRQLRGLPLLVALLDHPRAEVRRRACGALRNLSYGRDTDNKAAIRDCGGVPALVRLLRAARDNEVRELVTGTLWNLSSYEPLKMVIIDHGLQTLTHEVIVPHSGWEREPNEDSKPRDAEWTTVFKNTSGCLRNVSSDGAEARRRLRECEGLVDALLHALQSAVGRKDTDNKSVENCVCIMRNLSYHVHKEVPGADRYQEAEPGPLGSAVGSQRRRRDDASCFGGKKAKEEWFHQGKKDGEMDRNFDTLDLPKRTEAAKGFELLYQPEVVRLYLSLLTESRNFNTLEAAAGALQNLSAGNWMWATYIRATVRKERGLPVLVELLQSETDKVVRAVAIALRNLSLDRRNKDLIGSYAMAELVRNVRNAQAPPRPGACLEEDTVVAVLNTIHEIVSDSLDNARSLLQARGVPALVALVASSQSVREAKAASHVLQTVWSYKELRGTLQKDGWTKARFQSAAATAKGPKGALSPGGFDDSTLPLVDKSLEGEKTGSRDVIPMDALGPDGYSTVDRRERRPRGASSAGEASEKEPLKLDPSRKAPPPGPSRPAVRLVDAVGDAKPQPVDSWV
UniProt Q8IUX4: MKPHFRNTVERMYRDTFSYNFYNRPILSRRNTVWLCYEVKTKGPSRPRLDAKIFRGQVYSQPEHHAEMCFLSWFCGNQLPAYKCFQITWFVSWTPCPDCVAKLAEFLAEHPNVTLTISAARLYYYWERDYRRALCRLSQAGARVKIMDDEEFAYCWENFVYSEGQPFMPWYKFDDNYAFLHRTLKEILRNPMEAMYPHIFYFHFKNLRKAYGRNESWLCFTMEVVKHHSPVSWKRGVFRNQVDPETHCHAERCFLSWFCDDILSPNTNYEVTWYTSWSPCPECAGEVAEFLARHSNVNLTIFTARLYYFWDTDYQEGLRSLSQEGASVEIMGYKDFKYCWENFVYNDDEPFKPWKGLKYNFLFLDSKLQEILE

Compound in experiment [2]: CC1=C(SC2=C1C(=N[C@H](C3=NN=C(N32)C)CC(=O)N)C4=CC=C(C=C4)Cl)C
In a few lines:
as §1

Compound in experiment [3]: CC1=C2C(=CC=C1)N=C(N(C2=O)C3=CC=CC=C3C)CN4C=NC5=C(N=CN=C54)N
In a few lines:
as §1

Compound in experiment [4]: Cc1sc2c(c1C)C(c1ccc(Cl)cc1)=N[C@@H](CC(=O)OC(C)(C)C)c1nnc(C)n1-2
In a few lines: as §1

Compound in experiment [5]: c1ccc([C@@H]2C[C@H]2NC2CCNCC2)cc1
Summed up:
as §1

This is one part of the list.

For the target ARPC5L (UniProt Q9BPX5), the log2 fold change is inactive: 0.076 in experiment [1]; inactive: -0.079 in experiment [2]; inactive: 0.052 in experiment [3]; inactive: -0.012 in experiment [4]; inactive: -0.035 in experiment [5].

Regarding APP (UniProt P05067), the log2 fold change in experiment [1] is inactive: -0.006; in experiment [2], inactive: -0.024; in experiment [4], inactive: 0.109; in experiment [5], inactive: -0.03.

With APOC3 (UniProt P02656), the log2 fold change in experiment [3] is inactive: -0.473; in experiment [4], inactive: -0.086.

Take APOD (UniProt P05090): the log2 fold change in experiment [4] was inactive: 0.105; in experiment [5], inactive: -0.137.

On to APOBEC3B (UniProt Q9UH17), for which the values for the log2 fold change in experiment [3], in experiment [4] and in experiment [5] were inactive: 0.056, inactive: -0.107 and inactive: -0.051, respectively.

On to APOL1 isoform 2 (UniProt O14791), for which the log2 fold change is inactive: 0.081 in experiment [4] and inactive: 0.085 in experiment [5].

In the case of APPL1 (UniProt Q9UKG1), the log2 fold change is inactive: -0.016 in experiment [1]; inactive: 0.015 in experiment [2]; inactive: 0.019 in experiment [3]; inactive: 0.034 in experiment [4]; inactive: -0.011 in experiment [5].

For the target ARMC10 isoform 2 (UniProt Q8N2F6), in experiment [4], the log2 fold change is inactive: -0.056.

With APBA1 (UniProt Q02410), the figures for the log2 fold change in experiment [1], in experiment [2] and in experiment [5] were inactive: -0.045, inactive: -0.036 and inactive: 0.055, respectively.

For the target ARF1 (UniProt P84077), the log2 fold change in experiment [5] is inactive: 0.116.

On to ARL5A (UniProt Q9Y689), for which the values for the log2 fold change in experiment [3], in experiment [4] and in experiment [5] were inactive: 0.115, inactive: -0.105 and inactive: 0.073, respectively.

Take ARHGAP24 (UniProt Q8N264): the log2 fold change in experiment [3] was inactive: 0.419; in experiment [5], inactive: 0.006.

For the target ARAP3 (UniProt Q8WWN8), the figures for the log2 fold change in experiment [4] and in experiment [5] were inactive: -0.004 and inactive: 0.082, respectively.

On to ART4 (UniProt Q93070), for which the log2 fold change in experiment [1] was inactive: 0.069; in experiment [2], inactive: 0.014; in experiment [3], inactive: 0.074; in experiment [5], inactive: -0.016.

Take ARMC7 (UniProt Q9H6L4): the log2 fold change in experiment [3] is inactive: 0.223; in experiment [4], inactive: 0.006.

Regarding ARL5B (UniProt Q96KC2), the log2 fold change in experiment [1] is inactive: 0.037; in experiment [2] it was inactive: -0.083; in experiment [3] it was inactive: 0.003; in experiment [5] it was inactive: 0.019.

Consider ARSK (UniProt Q6UWY0), for which the log2 fold change was inactive: -0.113 in experiment [3], inactive: -0.016 in experiment [4] and inactive: 0.01 in experiment [5].

For the target ARL6IP4 isoform 4 (UniProt Q66PJ3), the log2 fold change in experiment [3] was inactive: 0.058; in experiment [5], inactive: -0.194.

On to ARHGEF2 (UniProt V9GYF0), for which the log2 fold change is inactive: 0.098 in experiment [3] and inactive: 0.105 in experiment [4].

Turning to ARHGAP17 (UniProt Q68EM7), the log2 fold change in experiment [1] is inactive: 0.021; in experiment [2], inactive: 0.002; in experiment [3], inactive: 0.011; in experiment [4], inactive: 0.009; in experiment [5] it was inactive: 0.095.

As to APLNR (UniProt P35414), the log2 fold change in experiment [5] was inactive: -0.069.

Turning to ARRDC1-AS1 (UniProt Q9H2J1), the log2 fold change in experiment [5] was inactive: 0.16.

As to APBA3 (UniProt O96018), the log2 fold change in experiment [3] is inactive: -0.1.

For the target ARVCF (UniProt O00192), the log2 fold change is inactive: 0.192 in experiment [3], inactive: -0.073 in experiment [4] and inactive: -0.107 in experiment [5].

As for APPBP2 (UniProt Q92624), the results for the log2 fold change in experiment [1], in experiment [2] and in experiment [5] were inactive: -0.052, inactive: 0.067 and inactive: 0.073, respectively.

Regarding AP5S1 (UniProt Q9NUS5), the log2 fold change in experiment [4] was inactive: 0.

For ARHGEF40 (UniProt Q8TER5), the log2 fold change in experiment [4] was inactive: -0.068.

On to ARL6IP4 isoform 2 (UniProt Q66PJ3), for which, in experiment [5], the log2 fold change was inactive: -0.059.

Consider APOBEC3F (UniProt Q8IUX4), for which the log2 fold change is inactive: 0.072 in experiment [1], inactive: 0.007 in experiment [2], inactive: -0.024 in experiment [3] and inactive: 0.189 in experiment [5].

For ARHGAP12 isoform 3 (UniProt Q8IWW6), the figures for the log2 fold change in experiment [3], in experiment [4] and in experiment [5] were inactive: 0.071, inactive: 0.037 and inactive: -0.039, respectively.

Consider AP5B1 (UniProt Q2VPB7), for which the log2 fold change in experiment [1] is inactive: 0.079; in experiment [2] it was inactive: -0.023; in experiment [4] it was inactive: -0.044; in experiment [5] it was inactive: -0.003.

In the case of APTX isoform 4 (UniProt Q7Z2E3), the log2 fold change in experiment [5] is inactive: -0.048.

ARMC8 isoform 6 (UniProt Q8IUR7): the log2 fold change in experiment [5] was inactive: -0.067.

Consider APH1A (UniProt Q96BI3), for which the log2 fold change in experiment [1] was inactive: -0.032; in experiment [2], inactive: 0.066; in experiment [5], inactive: 0.122.

Regarding ARMC5 (UniProt Q96C12), the log2 fold change in experiment [5] was inactive: 0.06.

ARID4A (UniProt P29374): the values for the log2 fold change in experiment [3], in experiment [4] and in experiment [5] were inactive: 0.072, inactive: 0.017 and inactive: 0.15, respectively.

Regarding ARHGAP22 isoform 2 (UniProt Q7Z5H3), the log2 fold change in experiment [4] is inactive: -0.143.

On to API5 isoform 1 (UniProt Q9BZZ5), for which, in experiment [5], the log2 fold change was inactive: 0.19.

These data come from the supplement of paper PMC10849652.
